# Measured values taken from PubChem BioAssay AID493014 (National Center for Advancing Translational Sciences (NCATS), 2011).
# About 170 (0.05%) of roughly 340,000 compounds were called active. Inconclusive means that the source gave no clear call. Such entries were picked first, then a sample of the others. Calls follow the shape of the dose curve; as a rule, active = well fitted inhibition curve with a large enough effect in the signal ratio, with a control signal flat (not every such curve was filed as active); inconclusive = small, poorly fitted or top-dose-only effect, or effect the other way, or a change in a side signal; inactive = flat fitted curve, though single readings scatter; the % refers to the signal ratio. Potencies of inconclusive entries are doubtful fits and often do not repeat.
# Assay: qHTS Assay to Find Inhibitors of Chronic Active B-Cell Receptor Signaling;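 as to activity change, negative = inhibition: plate controls were basal doxycycline-induced cells for no effect and cells given 10 µM MG132 for full effect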
# Settings: ABC-DLBCL IkBa-CBG/CBR reporter, luminescence ratio (green luciferase fused to IkBa over red control in TMD8 lymphoma cells), 4 h; activity change, negative = inhibition: at 46.1 µM (top of the series)
# Summary of the method: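 TMD8 ABC-DLBCL cells carrying doxycycline-inducible green luciferase fused to IkappaBalpha plus unfused red luciferase were exposed to compounds (up to 46 uM) for 4 hrs at 37C. Activity came from the overlap-corrected green/red luminescence ratio.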
# Potency is read from the fitted curve at half-maximal effect.
Structure (SMILES),Potency,"activity change, negative = inhibition"
O=C(CCSc1nc(-c2ccco2)cc(C(F)(F)F)n1)NCCc1ccccc1,"inconclusive: 8.2 µM [rising, partial curve]",–
CN(Cc1ccccc1)C(=O)COc1ccc(-c2nnco2)cc1,–,inconclusive: -8.13%
COc1ccc(OC)c(NC(=O)CN2c3cccc4cccc(c34)S2(=O)=O)c1,–,inconclusive: -3.04%
COc1ccc(NC(=S)N(Cc2ccc(Cl)cc2)Cc2ccc(C(=O)O)cc2)cc1Cl,–,inactive: 18.7%
COc1ccc(CNc2nc(NCc3ccc(OC)cc3)c3[nH]cnc3n2)cc1,"inconclusive: 22.4 µM [falling, single point]",–
Cc1ccc(OCCCCN2CCC(C)CC2)cc1,–,inconclusive: 2.9%
O=C(Nc1nc2c(s1)CCCC2)C1COc2ccccc2O1 (stereo not drawn),–,inconclusive: -14.4%
COc1ccc(CCNC(=S)NC(=O)c2c(-c3ccccc3Cl)noc2C)cc1OC,–,inconclusive: 1.85%
Clc1ccc(C2CC(c3ccco3)n3ncnc3N2)cc1Cl (stereo not drawn),–,inconclusive: -25.5%
CCCOC(=O)c1ccc(NC(=O)c2cccc(S(=O)(=O)N3CCN(C(C)=O)CC3)c2)cc1,–,inconclusive: -24.4%
Cc1c(N=C2NN=C(c3c[nH]c4ccccc34)CS2)c(=O)n(-c2ccccc2)n1C,"inconclusive: 17.8 µM [falling, partial curve, poor fit]",–
CCCCn1c(SCC(=O)c2ccccc2)nc2c(sc3ccccc32)c1=O,"inconclusive: 0.112 µM [rising, full curve, poor fit]",–
C(=C\n1nnc2ccccc21)/c1ccc[nH]1,"inconclusive: 11.6 µM [rising, partial curve]",–
COc1ccc(C(=O)Nc2ccccc2Cc2ccccc2)c(OC)c1,"inconclusive: 4.61 µM [falling, partial curve, poor fit]",–
COc1cc(/C=C(\NC(C)=O)C(=O)O)cc(OC)c1OC,–,inconclusive: -4.28%
COc1cc(/C=N/NC(=O)CC#N)cc(Br)c1O,–,inconclusive: -3.91%
Cn1nc(C(=O)NNC(=O)CCc2ccccc2Cl)c2ccccc2c1=O,–,inactive: -4.64%
CCc1c(C)nc2ncnn2c1N1CCCC(C(=O)NCCc2ccc(OC)cc2)C1 (stereo not drawn),–,inconclusive: -0.527%
C/C(=N/NC(=O)c1ccco1)c1ccc(NC(=O)c2ccc(F)cc2)cc1,–,inconclusive: -10.2%
O=c1[nH]c(SCCOc2ccccc2F)nc2ccccc12,–,inconclusive: 15.4%
Cc1ccccc1-c1cc2c(nn1)-c1ccccc1C2=O,–,inactive: 4.85%
CCN(CC(=O)NCc1ccc(Cl)cc1)C(=O)CSc1cccc(C(F)(F)F)c1,–,inconclusive: -4.86%
COC(=O)c1[nH]nc2c1C(=O)N(C1CCCCC1)C2=O,–,inconclusive: 11.6%
O=C(NC(=S)Nc1ccccn1)c1ccco1,"inconclusive: 20.6 µM [falling, single point]",–
O=C(O)CCCC(=O)Nc1ccc(OCc2nc3ccccc3s2)cc1,–,inconclusive: 7.95%
CN(c1ccc(C(=O)N2CCN(c3ccc(F)cc3)CC2)cc1)S(C)(=O)=O,–,inactive: -4.53%
COc1cc(/C=N/NC(=O)CN(CCc2ccccc2)S(=O)(=O)c2ccc(NC(C)=O)cc2)cc(OC)c1OC,–,inconclusive: 12.5%

Structure (SMILES),Potency,"activity change, negative = inhibition"
CCC1Oc2ccccc2C(=O)N(CC(=O)c2ccc3c(c2)OCCO3)C1=O (stereo not drawn),–,inconclusive: -0.0269%
O=C(CNC(=O)c1ccco1)NCC(=O)OCc1ccccc1Br,–,inconclusive: 8.05%
CCC(=O)NC(c1ccco1)c1cc(Cl)c2ccccc2c1O (stereo not drawn),–,inactive: -6.51%
O=C(O)COc1ccc(F)cc1Br,–,inactive: 0%
COc1ccc2oc(C(=O)OCC(=O)N(Cc3ccccc3)C(C)(C)C)c(C)c2c1,–,inactive: 6.5%
CC(C)OC(=O)c1ccc(N2CCN(c3ccc(F)cc3)CC2)nc1,–,inconclusive: -2.21%
Cc1cc(NC(=O)c2ccc(COc3ccc(Cl)c(C)c3)o2)no1,–,inconclusive: 10%
Cc1c(Br)cc(C(=O)NCc2ccco2)c(C)c1C,–,inconclusive: 14.5%
Cc1cccc(C)c1NC(=O)CN(C)C(=O)CCC(=O)N1CCOCC1,–,inconclusive: 1.39%
CC(=O)Nc1ccc(NC(=O)CSc2ccc3nnc(CCNS(=O)(=O)c4ccc(C)cc4)n3n2)cc1,–,inconclusive: 2.42%
CCCC(O)(c1ccc(OC)cc1)C(CN(C)C)c1ccccc1 (stereo not drawn),–,inconclusive: -5.59%
O=C(Cc1cccc(Cl)c1)Nc1ccc(Br)cc1,"inconclusive: 2.51 µM [rising, full curve, poor fit]",–
N#Cc1nc(-c2ccc(OCc3ccccc3)cc2)oc1NCCCN1CCOCC1,"inconclusive: 29.1 µM [falling, single point]",–
CC1Cc2ccccc2N1C(=S)NC(=O)c1cccc(Br)c1 (stereo not drawn),"inconclusive: 20.6 µM [falling, single point]",–
COc1ccccc1CCc1nnc(CCC(=O)N(C)Cc2cccc3cnccc23)o1,–,inconclusive: 15.1%
CCC(=O)Nc1cccc(NC(=O)c2ccc(C)cc2Cl)c1,–,inconclusive: 5.98%
COc1cccc(-c2nc(C(=O)NCCCN3CCOCC3)cc3c2[nH]c2ccccc23)c1,–,inconclusive: 25.5%
COc1cc(NS(=O)(=O)c2ccc(NC(=O)C34CC5CC(CC(C5)C3)C4)cc2)ncn1,–,inconclusive: 4.85%
CC1Cc2c([nH]c3ccccc23)C2c3ccccc3CN12 (stereo not drawn),–,inconclusive: -0.984%
Cc1nc(NCc2ccc3c(c2)OCO3)c2nnn(Cc3ccccc3)c2n1,–,inactive: 1.85%
O=c1[nH]c(NC2CCN(S(=O)(=O)c3ccccc3C(F)(F)F)CC2)nc2c1CCCC2,–,inactive: -1.33%
COc1ccc(S(=O)(=O)N2CCOC2CNC(=O)C(=O)NCCc2ccc(S(N)(=O)=O)cc2)cc1 (stereo not drawn),–,inconclusive: 9.69%
Cc1ccc(C#N)c(SCC(=O)Nc2nccs2)n1,–,inactive: 8.39%
CCOc1ccccc1-c1cc(C(=O)N/N=C/c2ccc(O)c(OC)c2)c2ccccc2n1,"inconclusive: 29.1 µM [falling, partial curve, poor fit]",–
Cc1cc(F)ccc1NCc1ccc([N+](=O)[O-])cc1,–,inactive: 0.086%
O=C(N[C@@H](Cc1ccccc1)C(=O)OCc1ccccc1)c1nc[nH]c1C(=O)N1CCc2ccccc2C1,"inconclusive: 22.4 µM [falling, single point]",–

# A different layout for part of the listing above.
Structure (SMILES)	Potency	activity change, negative = inhibition
COc1ccccc1CCc1nnc(CCC(=O)N(C)Cc2cccc3cnccc23)o1	–	inconclusive: 15.1%
Cc1cc(F)ccc1NCc1ccc([N+](=O)[O-])cc1	–	inactive: 0.086%
O=C(N[C@@H](Cc1ccccc1)C(=O)OCc1ccccc1)c1nc[nH]c1C(=O)N1CCc2ccccc2C1	inconclusive: 22.4 µM [falling, single point]	–
